A short description of this data set: general procedure: Fmoc solid-phase peptide synthesis in flow. The settings on record: whole synthesis, 210 nm.

Data on 1 sequence can be found in patent US20220259258 (published 2022).

End groups of sequences in plain letters are not given here.

Take GIGKFLKKAKKFGKAFVKILKK: the “final HPLC purity” value is recorded as above 91%.
